Results on 1 molecule are retold here after US10156566B2, “Detoxification of microbial virulence factors in oral cavity” (priority 2015, dated 2018).

In general, inhibition refers to the relative decrease from the control value, in per cent. Higher therefore signals strong suppression.

The test system of the experiment is Lipopolysaccharide.

On to `CC(C)(C)CC(C)(C)c1ccc(OCCOCC[N+](C)(C)Cc2ccccc2)cc1` [Benzethonium chloride, reference compound], for which the inhibition is 94.6%.
